Consider 35 compounds from the supplement of paper PMC8256030.

Structures are written as SMILES. “And” between values parts separate entries of the source, which are not always exact repeats. Equal values may be shown once. ± gives the standard deviation of the averaged measurements. Some of the results follow. Single values are uncertain here, since repeats match poorly.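 HEK293T cells were given each compound shortly before transfection with a reporter in which red mCherry is followed by the SARS-CoV-2 frameshift element and then GFP in the −1 frame, so GFP appears only after frameshifting.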

Assay [1] relates to SARS-CoV-2 -1 PRF reporter mCherry-FSE-GFP(-1). Briefly: mCherry (red) intensity as percent of control; higher = higher upstream reporter expression. The settings on record: 10 µM; 24 h; HEK293T.
Assay [2] has the same test system. The assay is described as follows: percent effect, decrease of GFP/mCherry ratio (-1 PRF reporter) relative to controls; higher = stronger frameshift inhibition. The settings on record: 10 µM; 24 h; HEK293T.

As for `C[N+](C)(C)CCOC(=O)CCC(=O)OCC[N+](C)(C)C` [Succinylcholine], the mCherry in assay [1] turned out to be 82.7%. For the same compound, the percent effect in assay [2] is -4.02%.

Turning to `COc1c2occc2c(OC)c2c(=O)cc(C)oc12` [khellin], the mCherry in assay [1] amounted to 91.8%. Further, in assay [2], the percent effect was -0.931%.

Compound `COc1cc(C=CC(=O)N2CCCCCCC2)cc(OC)c1OC` displayed a mCherry in assay [1] of 105%. Further, the percent effect in assay [2] is -1.82%.

Consider `N[C@@H](COP(=O)(O)O)C(=O)O` [dexfosfoserine], for which the mCherry in assay [1] was 85.2%. Also, in assay [2], the percent effect was -0.0731%.

For the compound `C=C[C@H]1CN2CC[C@H]1C[C@@H]2[C@@H](O)c1ccnc2ccc(OC)cc12`, in assay [1], the mCherry is 120% and 97.3%. For the same compound, in assay [2], the percent effect was 3.87% and -7.29%.

In the case of `CN(C)/N=N/c1[nH]cnc1C(N)=O` [Dacarbazine], the mCherry in assay [1] amounted to 58.7%. Besides, the percent effect in assay [2] was -5.14%.

`CCCCCCCCCCCCCCCCCCCCCCO` registered a mCherry in assay [1] of 99.6%. In assay [2], the percent effect was -0.422%.

`O=C(Oc1ccccc1C(=O)O)c1ccccc1O` [salsalate] gave a mCherry in assay [1] of 85.8%. For the same compound, the percent effect in assay [2] was determined as 0.0485%.

`CCCC(=O)Nc1ccc(OCC(O)CNC(C)C)c(C(C)=O)c1` (stereo not given) [acebutolol] gave a mCherry in assay [1] of 89.1%. Besides, in assay [2], the percent effect was -7.25%.

`CCCCNC(=O)NS(=O)(=O)c1ccc(N)cc1` [carbutamide]: the mCherry in assay [1] came to 80.1%. Further, in assay [2], the percent effect was -13.6%.

On to `CCCCc1cc2ccccc2c(OCCN(C)C)n1` [quinisocaine], for which the mCherry in assay [1] turned out to be 77.9%. Moreover, in assay [2], the percent effect is -9.43%.

The compound `CCOC(Nc1ccc(C(=O)O)cc1)C(=O)c1ccc(-c2ccccc2)cc1` (stereo not given) [xenazoic acid] returned a mCherry in assay [1] of 79.1%. The percent effect in assay [2] is -3.77%.

In the case of `CC1CCCCN1CCCOC(=O)c1ccccc1` (stereo not given) [piperocaine], the mCherry in assay [1] is 82.4%. Besides, the percent effect in assay [2] is -1.45%.

Compound `CN1CCCCC1CCN1c2ccccc2Sc2ccc([S+](C)[O-])cc21` (stereo not given) yielded a mCherry in assay [1] of 92.9%. The percent effect in assay [2] is -1.69%.

`CC(=O)Nc1ccc(OCCOCCOc2ccc(NC(C)=O)cc2)cc1` [diamfenetide]: the mCherry in assay [1] amounted to 78.8%. Moreover, in assay [2], the percent effect was -3.87%.

For `CC(=O)[C@@]1(C)CC[C@H]2[C@@H]3C=C(C)C4=CC(=O)CC[C@]4(C)[C@H]3CC[C@@]21C` [medrogestone], in assay [1], the mCherry was 49.9%. The percent effect in assay [2] was -20.7%.

The compound `CC[C@]12CN3CCc4c([nH]c5ccccc45)[C@@](C(=O)OC)(c4cc5c(cc4OC)N(C)[C@H]4[C@@](O)(C(=O)OC)[C@H](OC(C)=O)[C@]6(CC)C=CCN7CC[C@]54[C@@H]76)C[C@@H](C3)[C@H]1O2` [vinleurosine] showed a mCherry in assay [1] of 131%. Besides, the percent effect in assay [2] was -3.19%.

In assay [1], `CO[C@H]1C[C@@H]2CC[C@@H](C)[C@@](O)(O2)C(=O)C(=O)N2CCCC[C@H]2C(=O)O[C@H]([C@H](C)C[C@@H]2CC[C@@H](OCCO)[C@H](OC)C2)CC(=O)[C@H](C)/C=C(\C)[C@@H](O)[C@@H](OC)C(=O)[C@H](C)C[C@H](C)/C=C/C=C/C=C/1C` [Everolimus] came in with a mCherry of 101%. Besides, in assay [2], the percent effect was found to be 0.662%.

As for `CC1(C)S[C@@H]2[C@H](NC(=O)[C@H](C(=O)O)c3ccsc3)C(=O)N2[C@H]1C(=O)O`, the mCherry in assay [1] came to 130%. Further, the percent effect in assay [2] is -1.31%.

In assay [1], `O=C(O)CCC(=O)O` [Katasuccin] returned a mCherry of 129%. Further, the percent effect in assay [2] was -6.43%.

Regarding `CN(C)c1nc(N(C)C)nc(N(C)C)n1` [altretamine], the mCherry in assay [1] is 104% and 83%. Besides, in assay [2], the percent effect is 0.599% and -1.22%.

For `O=C1CCCC(=O)C1C(=O)c1ccc(C(F)(F)F)cc1[N+](=O)[O-]` [nitisinone], the mCherry in assay [1] was found to be 95.9%. In addition, the percent effect in assay [2] was -20.6%.

`CC(=O)OCC1OC([S-])C(OC(C)=O)C(OC(C)=O)C1OC(C)=O.CC[PH+](CC)CC.[Au+]` (stereo not given) [Auranofin] registered a mCherry in assay [1] of 856%. Also, the percent effect in assay [2] was -16.4%.

In turn, `CC(C)Cc1ccc(C(C)C(=O)NCCO)cc1` (stereo not given) [mabuprofen] gave a mCherry in assay [1] of 123%. Further, the percent effect in assay [2] is -5.71%.

On to `Nc1nc(/C(=C/CC(=O)O)C(=O)N[C@@H]2C(=O)N3C(C(=O)O)=CCS[C@H]23)cs1` [ceftibuten], for which the mCherry in assay [1] was determined as 116%. In addition, the percent effect in assay [2] is -3.75%.

Consider `CCCCOCCOCCOCc1cc2c(cc1CCC)OCO2`, for which the mCherry in assay [1] is 95.6%. Besides, the percent effect in assay [2] was -7.4%.

The compound `O=C(CCCN1CCC(O)(c2ccc(Br)cc2)CC1)c1ccc(F)cc1` [bromperidol] displayed a mCherry in assay [1] of 105%. The percent effect in assay [2] was -6.38%.

In turn, `CS(=O)(=O)c1ccc(-c2cn3ccccc3n2)cc1` [zolimidine] returned a mCherry in assay [1] of 85.6%. Further, the percent effect in assay [2] is -2.53%.

In assay [1], `CC1(C)NC(=O)N(c2ccc([N+](=O)[O-])c(C(F)(F)F)c2)C1=O` [nilutamide] registered a mCherry of 74.1%. In addition, in assay [2], the percent effect was -3.77%.

In the case of `O=C(O)c1cc(=O)c2c(OCC(O)COc3cccc4oc(C(=O)O)cc(=O)c34)cccc2o1` [cromoglicic acid], the mCherry in assay [1] is 100%. The percent effect in assay [2] was -4.83%.

`CC(C)OC(=O)C(C(=O)OC(C)C)=C1SC=CS1` [malotilate] registered a mCherry in assay [1] of 104%. The percent effect in assay [2] is -1.84%.

Regarding `CC(=O)OCC1=C(C(=O)O)N2C(=O)[C@@H](NC(=O)CC#N)[C@H]2SC1` [cefacetrile], in assay [1], the mCherry was found to be 81.4%. Also, the percent effect in assay [2] is -4.72%.

As for `c1ccc(CCNc2nc(-c3ccccc3)cs2)cc1` [fanetizole], the mCherry in assay [1] was 88.7%. The percent effect in assay [2] amounted to 10.5%.

In assay [1], `CC[C@@]12C=C(C(=O)OC)n3c4c(c5ccccc53)CCN(CCC1)[C@H]42` [apovincamine] registered a mCherry of 101 ± 10%. Moreover, the percent effect in assay [2] is -0.893 ± 1.8%.

For the compound `Cc1nccn1CC1CCc2c(c3ccccc3n2C)C1=O` (stereo not given), the mCherry in assay [1] is 96.3%. The percent effect in assay [2] was -5.91%.
